These are yes or no findings as the source states them, for the method shown. Binding seen in cells or lysates may run through a third protein. A result given as binding can be weak or reduced; the word gives no strength.

In the test the target is T1, Dvl1 (endogenous, rat primary neurons) (rat (endogenous in E18 rat primary neurons)) (UniProt Q9WVB9).
T1 sequence: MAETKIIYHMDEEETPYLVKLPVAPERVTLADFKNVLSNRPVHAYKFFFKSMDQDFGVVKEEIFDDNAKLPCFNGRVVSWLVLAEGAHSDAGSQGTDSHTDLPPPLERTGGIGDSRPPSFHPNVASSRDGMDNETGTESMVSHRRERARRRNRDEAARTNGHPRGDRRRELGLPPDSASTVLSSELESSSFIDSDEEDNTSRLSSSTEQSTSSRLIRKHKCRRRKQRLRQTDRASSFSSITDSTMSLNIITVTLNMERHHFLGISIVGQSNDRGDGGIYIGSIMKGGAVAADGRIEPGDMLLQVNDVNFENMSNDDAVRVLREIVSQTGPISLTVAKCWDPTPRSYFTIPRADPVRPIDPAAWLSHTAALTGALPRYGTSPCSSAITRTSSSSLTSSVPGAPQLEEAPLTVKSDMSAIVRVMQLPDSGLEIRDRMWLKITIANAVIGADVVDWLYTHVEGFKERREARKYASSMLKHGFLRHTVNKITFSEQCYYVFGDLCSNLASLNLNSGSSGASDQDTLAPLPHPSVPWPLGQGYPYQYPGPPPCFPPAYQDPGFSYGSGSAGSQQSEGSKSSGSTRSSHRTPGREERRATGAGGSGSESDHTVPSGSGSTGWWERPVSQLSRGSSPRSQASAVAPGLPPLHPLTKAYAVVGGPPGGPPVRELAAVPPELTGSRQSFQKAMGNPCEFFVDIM
In words: co-IP; endogenous Dvl1 immunoprecipitated with Dvl1 antibody from lysate of cultured E18 rat primary neurons; NP-40 lysis buffer; blot for Dvl1 and Nup358.

For Nup358 (endogenous, rat), the binding entry is recorded as “binds”.
